Experimental data from PMC4686814 (Nature communications, 2015).
Results are given in words; binding and its absence hold for the method and conditions named. Where a sequence is shown, tags or fusion partners need not be part of it.

Experiments:
[1] = target: MsVps4 Phe126Ala, full length, N-terminally His-tagged (Metallosphera sedula) (UniProt A4YHC5); assay: SEC; Superose 6; N-terminally His-tagged full length MsVps4 and mutants at 70 µM, a concentration that induces dodecamer formation; no nucleotide; both purified
[2] = target: MsVps4 Phe126Ala, full length, N-terminally His-tagged (Metallosphera sedula) (UniProt A4YHC5); assay: SEC-MALS; Superose 6 in 50 mM Tris pH 8.8, 50 mM NaCl; MsVps4 Phe126Ala injected at 200 µM; both purified

binding [1]: no binding (tested: 70 µM)
binding [2]: no binding (tested: 200 µM)
B1: MsVps4 Phe126Ala, full length, N-terminally His-tagged (enzyme, UniProt A4YHC5 1-369)
chain: MSAQVMLEEMARKYAIAAVRADKEGRREDAINNYKKAIEVLTQIVTLYPDMVARNAYEQMINEYKKRLETLNQMVPEGGEETEKAEEDIVMKEKPKVTLNEIVGLEDVKEALKEAVVYPSKRPDLAPLGWPRGILLYGPPGCGKTMIAAAVANELDSEFIHVDAASIMSKWLGEAEKNVAKIFKTARELSKKENKPAIIFIDELDALLASYTSEVGGEARVRNQFLKEMDGLADKNEISKVYVIGATNKPWRLDEPFLRRFQKRIYITLPDKAHRLELLKHYSSKVKLDPNVNLEELAELTDGYTASDIRDIVQSAHMRVVKEMFEKNLQEPRAINMDDFREVLKVRKPSVNQDMLKAYAAWHEKFKAL
